Laboratory results as given in patent US20240196946A1, “METABOLICALLY MODIFIED VANILLA BEANS AND METHODS FOR PRODUCING SAME” (VANILLA TECHNOLOGIES LTD., priority 2021, published 2024).

System: vanilla beans
Assay: Flavor test by a sensory panel (Example 5)
Conditions: FIG. 7, FIG. 8, beans treated with compounds of Table 3

## NCC(=O)O [Treatment 6, Glycine]
  flavor perceived by sensory panel: non-vanillic flavor

## N[C@@H](Cc1ccc(O)cc1)C(=O)O [Treatment 8, Tyrosine]
  flavor perceived by sensory panel: non-vanillic flavor

## O=C(O)c1ccco1 [Treatment 9, 2-Furoic acid]
  flavor perceived by sensory panel: strong vanillic flavor

## C[C@H](N)C(=O)O [Treatment 10, Alanine]
Listed as 10
  flavor perceived by sensory panel: non-vanillic flavor
Listed as alanine
  flavor perceived by sensory panel: mostly vinegar-sour and fruity flavor

## O=C(O)[C@@H]1CCCN1 [Treatment 11, Proline]
Listed as 11
  flavor perceived by sensory panel: non-vanillic flavor
Listed as Proline
  flavor perceived by sensory panel: strong flavor of baked nuts
